Assay results as given in patent publication EP1198477B1, “PROLACTIN-RELEASING PEPTIDE AND USE IN TREATING PAIN” (Oy Juvantia Pharma Ltd, priority 1999, dated 2004).
Entries after “also recorded” stand apart in the source; their conditions may differ. Not every detail of the peptide structures is certain; ends, links or a residue may be inferred. Residues, ends and D or L forms follow the SMILES beside them.

Columns and labels:
healthy animals = test: Paw pressure test (hindlimb withdrawal threshold, noxious mechanical stimulation) after microinjection in the brainstem; assay type: in vivo, rats; details: for antinociception after mechanical stimulation: dose not stated
normal rats = test: Heat-induced tail flick test after intrathecal administration; assay type: in vivo; details: for antinociceptive effects (tail flick test): intrathecal, doses 0.5, 5 or 10 nmol
[1] = 0.5 nmol microinjection into the NTS, 10 min following microinjection

SMILES | hindlimb withdrawal threshold (paw pressure test) (healthy animals; [1]) | antinociception after mechanical stimulation (healthy animals; injection into the NTS) | antinociceptive effects (tail flick test) (normal rats) | reversal of threshold elevation by naloxone (healthy animals; 0.5 nmol into the NTS, naloxone 1 mg/kg s.c. 5 min prior to injection) | time until threshold was at control level (healthy animals; 5 nmol in the NTS) [min] | hindlimb withdrawal threshold (paw pressure test) (healthy animals; 5 nmol in the NTS, 10 min following the injection) | hindlimb withdrawal threshold (paw pressure test) (healthy animals; injection in the CVLM (caudal ventrolateral medulla), 10 min following injection) | threshold elevation (paw pressure test), dose-dependence (healthy animals; injection in the NTS, 10 min following injection) | hindlimb withdrawal threshold (paw pressure test) (healthy animals; injection in the PAG (periaqueductal grey), 10 min following injection, healthy animals) | time after administration at which the effect was evident (healthy animals; injection into the NTS) [min] | time of maximal effect (healthy animals; injection into the NTS) [min] | modification of the antinociceptive effect of morphine (tail-flick latency time) (normal rats; i.t. dose of 5 nmol together with morphine)
CC[C@H](C)[C@H](NC(=O)CN)C(=O)N[C@@H](CCCNC(=N)N)C(=O)N1CCC[C@H]1C(=O)N[C@H](C(=O)NCC(=O)N[C@@H](CCCNC(=N)N)C(=O)N[C@@H](Cc1ccccc1)C(N)=O)C(C)C [PrRP8] (H-GIRPVGRF-NH2) | short of significance | ineffective | no significant antinociceptive effects | – | – | – | – | – | – | – | – | –
CC[C@H](C)[C@H](NC(=O)CNC(=O)[C@H](CCCNC(=N)N)NC(=O)CNC(=O)[C@H](C)NC(=O)[C@H](Cc1ccc(O)cc1)NC(=O)[C@H](Cc1c[nH]c2ccccc12)NC(=O)[C@H](C)NC(=O)[C@@H]1CCCN1C(=O)[C@H](CC(N)=O)NC(=O)[C@@H](NC(=O)[C@H](CC(=O)O)NC(=O)[C@@H]1CCCN1C(=O)[C@@H](N)[C@@H](C)O)[C@@H](C)CC)C(=O)N[C@@H](CCCNC(=N)N)C(=O)N1CCC[C@H]1C(=O)N[C@H](C(=O)NCC(=O)N[C@@H](CCCNC(=N)N)C(=O)N[C@@H](Cc1ccccc1)C(N)=O)C(C)C [PrRP20] (H-TPDINPAWYAGRGIRPVGRF-NH2) | significant threshold elevation | strong antinociception | no significant antinociceptive effects | not reversed by naloxone | ≤ 30 | significant increase | decrease of threshold by PrRP20 in the CVLM was short of significance; also recorded: mild hyperalgesia | dose-dependent threshold elevation | increase of threshold by PrRP20 in the PAG was short of significance; also recorded: ineffective | 5 | 20 | did not significantly modify
